Measurements: doi:10.1101/2020.05.08.084814
No constants are given. Whether binding was seen depends on the method and setting. In cells and extracts the contact can be indirect. Some binding calls cover weakened binding; strength is not graded here.

T1: Stau1 (Staufen1) (Xenopus laevis (endogenous in oocytes)) (UniProt Q6GM35)
T1 sequence: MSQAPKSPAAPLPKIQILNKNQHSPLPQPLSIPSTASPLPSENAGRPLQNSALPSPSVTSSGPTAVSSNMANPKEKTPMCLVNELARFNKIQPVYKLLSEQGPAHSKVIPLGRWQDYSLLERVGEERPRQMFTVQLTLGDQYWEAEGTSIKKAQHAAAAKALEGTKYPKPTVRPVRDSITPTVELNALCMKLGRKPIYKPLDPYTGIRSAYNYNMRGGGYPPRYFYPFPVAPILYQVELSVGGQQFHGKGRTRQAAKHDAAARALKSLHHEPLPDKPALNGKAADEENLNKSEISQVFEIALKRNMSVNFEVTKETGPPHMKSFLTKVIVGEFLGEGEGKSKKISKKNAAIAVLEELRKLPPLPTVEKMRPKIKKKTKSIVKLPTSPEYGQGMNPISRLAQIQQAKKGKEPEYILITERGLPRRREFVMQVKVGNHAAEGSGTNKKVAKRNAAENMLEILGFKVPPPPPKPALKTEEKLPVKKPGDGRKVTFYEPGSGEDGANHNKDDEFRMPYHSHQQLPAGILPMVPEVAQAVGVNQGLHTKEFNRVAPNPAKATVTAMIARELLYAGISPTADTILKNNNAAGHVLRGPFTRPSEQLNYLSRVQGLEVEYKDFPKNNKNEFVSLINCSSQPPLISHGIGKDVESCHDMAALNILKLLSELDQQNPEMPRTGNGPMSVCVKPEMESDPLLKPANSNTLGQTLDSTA

T2: hnRNPAB (40LoVE) (Xenopus laevis (endogenous in oocytes))
T2 sequence: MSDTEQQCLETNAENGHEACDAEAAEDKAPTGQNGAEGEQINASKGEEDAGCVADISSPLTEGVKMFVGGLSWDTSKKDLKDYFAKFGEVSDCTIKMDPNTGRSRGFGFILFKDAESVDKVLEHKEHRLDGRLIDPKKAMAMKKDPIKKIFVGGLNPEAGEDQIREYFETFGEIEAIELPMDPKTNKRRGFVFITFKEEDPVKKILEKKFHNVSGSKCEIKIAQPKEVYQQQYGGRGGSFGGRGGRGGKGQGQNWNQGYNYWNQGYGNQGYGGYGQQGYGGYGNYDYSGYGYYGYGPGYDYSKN


Experiments:
[1] = biological target: T1, Stau1 (Staufen1) (Xenopus laevis (endogenous in oocytes)); assay: co-IP
[2] = biological target: T2, hnRNPAB (40LoVE) (Xenopus laevis (endogenous in oocytes)); assay: co-IP

| binding [1] | binding [2] | Binder |
| --- | --- | --- |
| binds | – | hnRNPAB (40LoVE) (protein, UniProt A0A7M4CIF6 1-304) MSDTEQQCLETNAENGHEACDAEAAEDKAPTGQNGAEGEQINASKGEEDAGCVADISSPLTEGVKMFVGGLSWDTSKKDLKDYFAKFGEVSDCTIKMDPNTGRSRGFGFILFKDAESVDKVLEHKEHRLDGRLIDPKKAMAMKKDPIKKIFVGGLNPEAGEDQIREYFETFGEIEAIELPMDPKTNKRRGFVFITFKEEDPVKKILEKKFHNVSGSKCEIKIAQPKEVYQQQYGGRGGSFGGRGGRGGKGQGQNWNQGYNYWNQGYGNQGYGGYGQQGYGGYGNYDYSGYGYYGYGPGYDYSKN |
| – | binds | Stau1 (Staufen1) (protein, UniProt Q6GM35 1-708) MSQAPKSPAAPLPKIQILNKNQHSPLPQPLSIPSTASPLPSENAGRPLQNSALPSPSVTSSGPTAVSSNMANPKEKTPMCLVNELARFNKIQPVYKLLSEQGPAHSKVIPLGRWQDYSLLERVGEERPRQMFTVQLTLGDQYWEAEGTSIKKAQHAAAAKALEGTKYPKPTVRPVRDSITPTVELNALCMKLGRKPIYKPLDPYTGIRSAYNYNMRGGGYPPRYFYPFPVAPILYQVELSVGGQQFHGKGRTRQAAKHDAAARALKSLHHEPLPDKPALNGKAADEENLNKSEISQVFEIALKRNMSVNFEVTKETGPPHMKSFLTKVIVGEFLGEGEGKSKKISKKNAAIAVLEELRKLPPLPTVEKMRPKIKKKTKSIVKLPTSPEYGQGMNPISRLAQIQQAKKGKEPEYILITERGLPRRREFVMQVKVGNHAAEGSGTNKKVAKRNAAENMLEILGFKVPPPPPKPALKTEEKLPVKKPGDGRKVTFYEPGSGEDGANHNKDDEFRMPYHSHQQLPAGILPMVPEVAQAVGVNQGLHTKEFNRVAPNPAKATVTAMIARELLYAGISPTADTILKNNNAAGHVLRGPFTRPSEQLNYLSRVQGLEVEYKDFPKNNKNEFVSLINCSSQPPLISHGIGKDVESCHDMAALNILKLLSELDQQNPEMPRTGNGPMSVCVKPEMESDPLLKPANSNTLGQTLDSTA |
